Assay results published in publication PMC8545988.
These are yes or no findings as the source states them, for the method shown. A result given as binding can be weak or reduced; the word gives no strength. Sequences can lack the tags named with a protein.

Target: BD-11TPR (11-TPR domain of SPY in pGBKT7) (Arabidopsis thaliana)
Experiment: two-hybrid; one-to-one test: pGBKT7 baits with pGADT7-CPN20; growth on SD/-Trp/-Leu/-His/AbA/X-alpha-Gal or SD/-Trp/-Leu/-His/-Ade/AbA/X-alpha-Gal; pictures after 4 days on SD-3/X/A

B1: AD-CPN20 (full-length CPN20 in pGADT7) (protein, UniProt O65282 1-253)
chain: MAATQLTASPVTMSARSLASLDGLRASSVKFSSLKPGTLRQSQFRRLVVKAASVVAPKYTSIKPLGDRVLVKIKEAEEKTLGGILLPSTAQSKPQGGEVVAVGEGRTIGKNKIDITVPTGAQIIYSKYAGTEVEFNDVKHLILKEDDIVGILETEDIKDLKPLNDRVFIKVAEAEEKTAGGLLLTETTKEKPSIGTVIAVGPGSLDEEGKITPLPVSTGSTVLYSKYAGNDFKGKDGSNYIALRASDVMAILS
binding: binds
